PMC8209642
These are yes or no findings as the source states them, for the method shown. In cells and extracts the contact can be indirect. Some binding calls cover weakened binding; strength is not graded here.

By UniProt entry, the sequences of proteins in these tests, tags left out.
UniProt P52294: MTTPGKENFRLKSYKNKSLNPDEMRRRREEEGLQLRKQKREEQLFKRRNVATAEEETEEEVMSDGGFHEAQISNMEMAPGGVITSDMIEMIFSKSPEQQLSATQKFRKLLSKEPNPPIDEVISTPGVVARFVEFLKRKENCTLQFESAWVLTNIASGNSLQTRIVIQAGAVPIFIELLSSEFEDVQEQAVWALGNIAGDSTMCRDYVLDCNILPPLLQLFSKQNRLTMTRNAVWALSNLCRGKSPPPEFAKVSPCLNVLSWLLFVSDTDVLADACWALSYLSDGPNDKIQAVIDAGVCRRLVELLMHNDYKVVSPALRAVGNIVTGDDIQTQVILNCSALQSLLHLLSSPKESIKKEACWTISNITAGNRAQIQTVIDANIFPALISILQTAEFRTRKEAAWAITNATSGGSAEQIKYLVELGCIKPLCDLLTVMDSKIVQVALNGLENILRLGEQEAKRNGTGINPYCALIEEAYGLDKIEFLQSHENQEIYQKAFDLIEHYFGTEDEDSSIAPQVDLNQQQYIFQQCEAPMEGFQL
UniProt Q9GZV5: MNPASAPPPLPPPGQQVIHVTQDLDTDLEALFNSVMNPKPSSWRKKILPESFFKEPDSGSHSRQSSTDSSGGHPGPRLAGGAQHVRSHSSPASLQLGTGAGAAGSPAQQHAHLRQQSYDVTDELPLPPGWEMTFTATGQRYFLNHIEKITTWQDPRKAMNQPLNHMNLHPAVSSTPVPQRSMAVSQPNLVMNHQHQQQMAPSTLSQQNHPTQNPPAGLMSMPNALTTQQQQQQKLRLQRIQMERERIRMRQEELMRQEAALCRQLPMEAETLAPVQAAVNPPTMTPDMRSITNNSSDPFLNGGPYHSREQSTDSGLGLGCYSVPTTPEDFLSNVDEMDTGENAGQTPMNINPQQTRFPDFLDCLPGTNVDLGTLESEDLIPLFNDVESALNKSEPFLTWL

Experiments:
[1] = target: FLAG-His6-tagged importin α5 (human) (UniProt P52294); assay: co-IP; HEK293FT cells transfected with pCIneoFH-importin α5 and pCIneoGFP-TAZ, treated with DMSO or 10 μM TI-4 for 48 h, with control siRNA or CSE1L siRNA beforehand; immunoprecipitation with anti-DYKDDDDK beads
[2] = target: endogenous TAZ (human (endogenous in HEK293FT)) (UniProt Q9GZV5); assay: co-IP; endogenous proteins; HEK293FT cells transfected with CSE1L siRNA, lysed 72 h later; supernatant incubated with rabbit control IgG or TAZ polyclonal antibody, then Protein G Sepharose; lysis buffer 25 mM Tris-HCl pH 7.4, 150 mM NaCl, 1% Triton X-100

| binding [1] | binding [2] | Substance |
| --- | --- | --- |
| binds |  | GFP-tagged TAZ (transcriptional coactivator with PDZ-binding motif) (from UniProt Q9GZV5 1-400) |
|  | binds | endogenous importin α5 (from UniProt P52294 1-538) |
